These are yes or no findings as the source states them, for the method shown. Sequences can lack the tags named with a protein.
Target: dROS1SEQ (dROS1 extracellular construct with FSI 876-878 changed to SEQ) (D. melanogaster)
Assay: SPR; BIAcore T200; dROS1 constructs covalently coupled (NHS/EDC) to a CM5 chip, BOSS ECR proteins flowed over at 10 µL/min for 180 s; 20 mM HEPES pH 7.5, 100 mM NaCl; plateau RU against BOSS concentration fitted to a single-site specific binding model; both purified

B1: BOSS (Bride Of Sevenless) extracellular region, His tag cleaved (domain or fragment, D. melanogaster, UniProt P22815 102-510, looked up)
chain: GTTASLVPEICLNGLQLTVNSADEGTVIRKQEEFVKILEGDVVLSVLTKDPDSALFVINRVNQANLIMADFEIGIRAISIDNASLAENLLIQEVQFLQQCTTYSMGIFVDWELYKQLESVIKDLEYNIWPIPGTRAHLFPKVAHLLHQMPWGEKIASVEIATETLEMYNEFMEAARQEHMCLMHFKSDDNVYIMFGNKLASHFKENGTLFSVPTDRTDDEFLADLPNRAFVLMENEIDLSTAVELDATPTALDEILIGKSVLPSRVLSFAGSIIDLMNWLRGSLSKHCKRGEEHDLYVLESCFNFLNFIEDWRTSEYRQAHDTAEILSLLLMRKLGTAMNFQMYQKKVLTLDKITGESRTELREIASQNFVTNVTTYYHYNRDNHTSLELKTKFGQVFNCQYSAGDNRR
notes: Bride of sevenless (BOSS), D. melanogaster, extracellular region, residues 102-510; also called BOSS ECR; BOSSWT; source: Trichoplusia ni (Hi5) cells, baculovirus, purified from the medium (Ni resin, SEC; Factor Xa cleavage, Ni flow-through, SEC); not shown: His8, N-terminal, cleaved
binding: no binding

Source: article PMC11743138, “Structural basis for the interaction between the Drosophila RTK Sevenless (dROS1) and the GPCR BOSS” (Nature Communications, 2025)
